Results taken from paper PMC11882097.
These are yes or no findings as the source states them, for the method shown. Binding seen in cells or lysates may run through a third protein. For some assays here: Binding calls can cover weak binding; strength is not graded here. For some assays here: Where a sequence is shown, tags or fusion partners need not be part of it.

T1: YFP-NbSGS3 (N. benthamiana) (UniProt X4YFK1)
T1 sequence: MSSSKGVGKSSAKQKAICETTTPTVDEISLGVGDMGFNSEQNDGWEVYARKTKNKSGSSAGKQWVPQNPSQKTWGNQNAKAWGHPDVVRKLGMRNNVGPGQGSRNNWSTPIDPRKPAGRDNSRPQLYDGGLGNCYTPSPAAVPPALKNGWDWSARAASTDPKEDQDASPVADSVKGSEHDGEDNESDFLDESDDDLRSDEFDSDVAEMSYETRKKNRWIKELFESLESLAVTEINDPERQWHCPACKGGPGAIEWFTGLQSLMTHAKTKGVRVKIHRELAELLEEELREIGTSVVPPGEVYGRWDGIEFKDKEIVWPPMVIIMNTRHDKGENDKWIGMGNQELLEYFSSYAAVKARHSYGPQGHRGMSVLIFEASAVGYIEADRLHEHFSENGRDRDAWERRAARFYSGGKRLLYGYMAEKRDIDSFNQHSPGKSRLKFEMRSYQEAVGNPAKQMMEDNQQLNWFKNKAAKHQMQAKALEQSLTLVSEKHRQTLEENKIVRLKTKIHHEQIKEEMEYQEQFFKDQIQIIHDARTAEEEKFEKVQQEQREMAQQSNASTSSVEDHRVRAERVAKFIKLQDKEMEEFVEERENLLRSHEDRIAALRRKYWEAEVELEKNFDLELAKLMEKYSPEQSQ

T2: NbSGS3-Y^N (N. benthamiana) (UniProt X4YFK1)
T2 sequence: T1 sequence

B1: NbSGS3-CFP-HA (protein, UniProt X4YFK1 1-635)
chain: T1 sequence
B2: NbSGS3-Y^N (protein, UniProt X4YFK1 1-635)
chain: T1 sequence

Tests used:
[1] = target: T1, YFP-NbSGS3 (N. benthamiana); assay: pull-down; YFP-NbSGS3 from N. benthamiana leaves precipitated on GFP-Trap beads; purified GST-p20 or GST added, 2 h at 4 °C; immunoblot; only the binder purified
[2] = target: T2, NbSGS3-Y^N (N. benthamiana); assay: split reporter; BiFC of YN and YC fusions co-agroinfiltrated 1:1 into N. benthamiana leaves; YFP signal by confocal microscopy at 48-72 hpi
[3] = target: p20-YFP-Flag (citrus tristeza virus (isolate N21)); assay: co-IP; total protein of agroinfiltrated N. benthamiana leaves; anti-Flag M2 affinity gel, 2-4 h at 4 °C; 25 mM Tris pH 7.5, 150 mM NaCl, 0.1% NP40; immunoblot
[4] = target: Y^C-NbATG8f (N. benthamiana); assay: split reporter; BiFC of YN and YC fusions co-agroinfiltrated 1:1 into N. benthamiana leaves; YFP signal by confocal microscopy at 48-72 hpi

Molecule | binding [2] | other results
His-GST-p20 (citrus tristeza virus (isolate N21)) |  | binding [1]: binds
p20^mAIM1-Y^C (citrus tristeza virus (isolate N21)) | binds | 
p20^mAIM2-Y^C (citrus tristeza virus (isolate N21)) | binds | 
p20^mAIM3-Y^C (citrus tristeza virus (isolate N21)) | binds | 
p20^mAIM4-Y^C (citrus tristeza virus (isolate N21)) | binds | 
p20^mAIM5-Y^C (citrus tristeza virus (isolate N21)) | binds | 
B1 |  | binding [3]: binds
B2 |  | binding [4]: no binding
